Laboratory results reported in patent US8318697B2, “Prophylactic and therapeutic treatment of infectious and other diseases with mono- and disaccharide-based compounds” (Corixa Corporation, priority 2000, dated 2012).

Tested on: P. carinii
Experiment: Protection against P. carinii infection in anti-CD4 treated (immunocompromised) mice, lung impression smear score
Assay type: in vivo
Conditions: pulmonary delivery
Procedure: Mice were pretreated with L3T4 anti-CD4 antibody for a minimum of 2 weeks (2 injections/week, 0.2 mg/injection) or until the peripheral CD4 count was reduced by at least about 50%.
An aqueous formulation was prepared containing 1 mg/ml 3-O-deacylated monophosphoryl lipid A and 108 μg/ml of the surfactant DPPC in water. The formulation was administered intratracheally via a small cannula at −24 hours and then twice a week for the remainder of the study. The concentrations administered are indicated below in Table 1. One million P. carinii were inoculated trans-tracheally at day 0. Twice-weekly treatments were continued for 7 weeks, lungs were removed and impression smears made. Slides were stained with Giemsa and silver and scored for the presence of P. carinni as follows.

In the case of “3-O-deacylated monophosphoryl lipid A [MPL]”, the “FACS analysis of cells lavaged from the lungs” value is reported as “displayed markers for activated neutrophils but was unremarkable for an influx of leukocytes”.
